Experimental data reported in patent US20160089448A1, “POLYMERIC PRODRUG WITH A SELF-IMMOLATIVE LINKER” (Ascendis Pharma GmbH, priority 2004, published 2016).

Test: MS analysis of buffer-released insulin
Type: physicochemical
Details: insulin released in buffer pH 7.4, FIG. 11

Substance	modification of released insulin (mass spectrum)
9b: mono-pegylated insulin with ester-linked masking group, from 8b and maleimide-PEG5k [Compound 9b]	no modification
Compound 9a: mono-pegylated insulin from 8a (NαA1-linker-insulin, pentanoyl masking group, no nucleophile) and maleimide-PEG5k; comparison, not part of invention	major side product
